Experimental data taken from patent US20240109852A1, “Ferroptosis-HDAC Inhibitor Hybrid Anticancer Agents” (The University of Toledo, priority 2022, published 2024).

System: NCI-H522 human lung cancer cells
Experiment: Cell viability assay (methylene blue staining), NCI-H522
Format: cell-based
Conditions: 72 h, read-out: IC50 ± SD (n = 3) on NCI-H522 cell line, three days after treatment

- IC50: 1460 ± 100 nM
Compound: O=C(CCCCCCC(=O)Nc1ccccc1)NO [SAHA]
